From the supplement of paper PMC10849652
The other results are listed elsewhere or left out.

Chains of the proteins cited; added tags and fusions are not shown. Lines headed by an entry give the natural chain unless they say otherwise; changes in a name come on top.
UniProt Q8IXB1: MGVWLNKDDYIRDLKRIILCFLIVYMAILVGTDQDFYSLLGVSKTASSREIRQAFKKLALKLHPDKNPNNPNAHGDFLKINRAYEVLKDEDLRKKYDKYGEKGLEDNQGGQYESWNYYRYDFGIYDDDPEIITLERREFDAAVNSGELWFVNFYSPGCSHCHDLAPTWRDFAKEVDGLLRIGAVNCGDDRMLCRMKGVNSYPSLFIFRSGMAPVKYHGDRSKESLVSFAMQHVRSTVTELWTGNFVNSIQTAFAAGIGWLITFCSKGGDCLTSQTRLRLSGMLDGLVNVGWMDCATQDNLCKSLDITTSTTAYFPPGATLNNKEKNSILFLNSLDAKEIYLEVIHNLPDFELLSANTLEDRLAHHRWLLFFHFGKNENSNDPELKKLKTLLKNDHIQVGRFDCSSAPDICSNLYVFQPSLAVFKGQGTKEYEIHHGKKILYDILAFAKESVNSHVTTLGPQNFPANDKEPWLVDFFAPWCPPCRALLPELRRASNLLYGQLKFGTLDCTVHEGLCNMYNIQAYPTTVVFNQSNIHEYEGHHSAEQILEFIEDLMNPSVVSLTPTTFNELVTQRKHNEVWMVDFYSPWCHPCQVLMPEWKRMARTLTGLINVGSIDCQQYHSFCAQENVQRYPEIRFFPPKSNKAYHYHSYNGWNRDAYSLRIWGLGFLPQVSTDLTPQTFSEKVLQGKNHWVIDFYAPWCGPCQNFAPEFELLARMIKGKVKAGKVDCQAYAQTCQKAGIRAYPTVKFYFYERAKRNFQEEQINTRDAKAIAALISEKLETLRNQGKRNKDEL
UniProt Q9C005, whole entry, looked up: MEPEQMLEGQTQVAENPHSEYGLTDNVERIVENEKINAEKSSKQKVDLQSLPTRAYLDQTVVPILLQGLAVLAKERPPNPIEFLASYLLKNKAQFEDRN
UniProt Q7Z388: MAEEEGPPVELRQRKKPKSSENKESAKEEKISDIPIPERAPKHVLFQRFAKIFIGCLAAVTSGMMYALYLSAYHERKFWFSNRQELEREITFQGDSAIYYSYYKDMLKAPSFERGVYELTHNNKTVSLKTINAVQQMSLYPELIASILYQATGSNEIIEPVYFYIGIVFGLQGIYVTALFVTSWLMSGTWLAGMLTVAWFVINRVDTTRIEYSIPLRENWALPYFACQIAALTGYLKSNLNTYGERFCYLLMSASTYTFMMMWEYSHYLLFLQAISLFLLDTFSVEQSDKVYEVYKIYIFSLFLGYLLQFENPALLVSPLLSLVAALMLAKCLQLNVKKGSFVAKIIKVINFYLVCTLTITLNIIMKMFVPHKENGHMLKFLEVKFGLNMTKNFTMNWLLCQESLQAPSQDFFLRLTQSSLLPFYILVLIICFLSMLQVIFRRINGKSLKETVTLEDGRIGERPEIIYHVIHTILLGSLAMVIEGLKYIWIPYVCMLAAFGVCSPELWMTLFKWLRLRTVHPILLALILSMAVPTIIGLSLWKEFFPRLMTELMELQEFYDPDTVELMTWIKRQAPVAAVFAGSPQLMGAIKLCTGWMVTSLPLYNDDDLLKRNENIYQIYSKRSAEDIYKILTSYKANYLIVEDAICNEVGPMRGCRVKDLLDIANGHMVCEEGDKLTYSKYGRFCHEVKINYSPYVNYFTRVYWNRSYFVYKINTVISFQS
UniProt Q01658: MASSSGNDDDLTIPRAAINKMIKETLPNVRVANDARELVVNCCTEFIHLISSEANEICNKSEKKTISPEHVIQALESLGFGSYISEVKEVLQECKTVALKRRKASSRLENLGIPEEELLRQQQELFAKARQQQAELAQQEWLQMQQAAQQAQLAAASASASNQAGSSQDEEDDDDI
UniProt O43237, whole entry, looked up: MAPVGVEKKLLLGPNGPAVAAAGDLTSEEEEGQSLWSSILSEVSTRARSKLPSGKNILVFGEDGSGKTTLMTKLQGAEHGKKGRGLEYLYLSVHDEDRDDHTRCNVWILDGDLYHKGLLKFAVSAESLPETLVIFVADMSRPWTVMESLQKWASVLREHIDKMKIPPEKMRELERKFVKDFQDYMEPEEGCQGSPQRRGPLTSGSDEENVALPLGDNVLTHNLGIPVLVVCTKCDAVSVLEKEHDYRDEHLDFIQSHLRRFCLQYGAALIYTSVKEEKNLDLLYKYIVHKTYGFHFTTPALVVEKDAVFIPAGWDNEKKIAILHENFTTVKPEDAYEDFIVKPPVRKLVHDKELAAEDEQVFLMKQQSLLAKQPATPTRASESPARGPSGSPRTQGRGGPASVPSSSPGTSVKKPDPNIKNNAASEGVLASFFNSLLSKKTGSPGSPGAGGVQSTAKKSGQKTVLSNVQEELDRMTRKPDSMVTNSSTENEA
UniProt Q9BQ95: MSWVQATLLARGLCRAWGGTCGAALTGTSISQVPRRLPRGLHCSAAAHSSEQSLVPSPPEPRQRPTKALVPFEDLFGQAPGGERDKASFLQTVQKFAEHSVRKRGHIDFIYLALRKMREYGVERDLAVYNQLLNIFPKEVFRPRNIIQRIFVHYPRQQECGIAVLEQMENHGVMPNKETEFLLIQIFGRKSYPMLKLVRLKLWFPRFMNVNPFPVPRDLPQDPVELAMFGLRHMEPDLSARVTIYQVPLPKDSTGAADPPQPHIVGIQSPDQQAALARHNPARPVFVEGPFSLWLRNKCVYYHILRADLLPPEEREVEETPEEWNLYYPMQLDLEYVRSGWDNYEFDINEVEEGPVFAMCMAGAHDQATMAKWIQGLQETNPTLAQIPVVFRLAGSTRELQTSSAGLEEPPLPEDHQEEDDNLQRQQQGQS
UniProt Q9H2P9: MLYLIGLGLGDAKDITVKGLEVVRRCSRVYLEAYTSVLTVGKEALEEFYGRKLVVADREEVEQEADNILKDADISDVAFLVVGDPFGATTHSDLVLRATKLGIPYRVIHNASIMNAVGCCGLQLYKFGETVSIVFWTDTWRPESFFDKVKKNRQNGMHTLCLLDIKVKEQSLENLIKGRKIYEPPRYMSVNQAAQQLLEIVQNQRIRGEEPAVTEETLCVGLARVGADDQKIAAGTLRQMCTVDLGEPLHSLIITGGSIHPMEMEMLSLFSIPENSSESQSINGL
UniProt Q9BTV6: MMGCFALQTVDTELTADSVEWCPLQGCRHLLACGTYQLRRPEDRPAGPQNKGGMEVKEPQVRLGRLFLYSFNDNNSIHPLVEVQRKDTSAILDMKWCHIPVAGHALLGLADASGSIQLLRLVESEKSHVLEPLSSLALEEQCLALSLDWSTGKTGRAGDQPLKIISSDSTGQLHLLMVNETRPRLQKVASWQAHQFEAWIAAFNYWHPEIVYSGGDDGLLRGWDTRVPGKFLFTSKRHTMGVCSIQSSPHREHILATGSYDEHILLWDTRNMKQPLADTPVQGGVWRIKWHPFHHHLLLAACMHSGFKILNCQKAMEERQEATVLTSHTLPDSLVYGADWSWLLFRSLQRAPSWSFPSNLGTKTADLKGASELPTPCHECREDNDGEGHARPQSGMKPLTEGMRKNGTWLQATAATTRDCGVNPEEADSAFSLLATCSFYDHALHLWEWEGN
UniProt Q8TEA8: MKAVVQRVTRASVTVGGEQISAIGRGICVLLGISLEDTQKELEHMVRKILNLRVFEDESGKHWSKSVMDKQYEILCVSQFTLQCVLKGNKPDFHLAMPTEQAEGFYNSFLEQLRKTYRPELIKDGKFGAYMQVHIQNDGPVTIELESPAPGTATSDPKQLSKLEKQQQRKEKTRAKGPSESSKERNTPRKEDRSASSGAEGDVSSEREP
UniProt Q9NZJ0: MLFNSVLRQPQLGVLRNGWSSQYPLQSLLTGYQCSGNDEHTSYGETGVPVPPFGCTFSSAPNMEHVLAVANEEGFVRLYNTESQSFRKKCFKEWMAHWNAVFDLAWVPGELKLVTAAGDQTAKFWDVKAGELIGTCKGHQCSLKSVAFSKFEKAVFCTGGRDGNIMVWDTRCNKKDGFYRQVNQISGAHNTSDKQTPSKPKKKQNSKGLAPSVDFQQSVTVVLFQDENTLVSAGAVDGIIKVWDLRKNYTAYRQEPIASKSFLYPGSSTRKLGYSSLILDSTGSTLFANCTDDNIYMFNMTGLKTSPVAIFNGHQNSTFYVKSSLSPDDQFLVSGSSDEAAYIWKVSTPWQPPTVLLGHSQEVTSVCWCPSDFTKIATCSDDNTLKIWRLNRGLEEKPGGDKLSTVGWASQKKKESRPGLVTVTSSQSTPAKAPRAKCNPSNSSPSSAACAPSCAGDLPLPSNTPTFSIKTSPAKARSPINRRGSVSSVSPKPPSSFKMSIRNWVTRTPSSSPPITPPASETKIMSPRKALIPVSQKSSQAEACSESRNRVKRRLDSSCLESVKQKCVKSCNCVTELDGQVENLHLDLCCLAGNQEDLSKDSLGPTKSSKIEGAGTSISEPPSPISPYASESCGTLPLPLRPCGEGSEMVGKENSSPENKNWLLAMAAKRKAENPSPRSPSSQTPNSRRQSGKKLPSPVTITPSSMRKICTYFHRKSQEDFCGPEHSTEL
UniProt O43598: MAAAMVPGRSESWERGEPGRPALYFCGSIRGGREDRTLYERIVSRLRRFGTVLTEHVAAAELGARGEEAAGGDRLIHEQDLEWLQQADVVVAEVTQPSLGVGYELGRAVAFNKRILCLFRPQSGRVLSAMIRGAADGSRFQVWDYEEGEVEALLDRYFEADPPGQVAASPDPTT
UniProt Q96EY1: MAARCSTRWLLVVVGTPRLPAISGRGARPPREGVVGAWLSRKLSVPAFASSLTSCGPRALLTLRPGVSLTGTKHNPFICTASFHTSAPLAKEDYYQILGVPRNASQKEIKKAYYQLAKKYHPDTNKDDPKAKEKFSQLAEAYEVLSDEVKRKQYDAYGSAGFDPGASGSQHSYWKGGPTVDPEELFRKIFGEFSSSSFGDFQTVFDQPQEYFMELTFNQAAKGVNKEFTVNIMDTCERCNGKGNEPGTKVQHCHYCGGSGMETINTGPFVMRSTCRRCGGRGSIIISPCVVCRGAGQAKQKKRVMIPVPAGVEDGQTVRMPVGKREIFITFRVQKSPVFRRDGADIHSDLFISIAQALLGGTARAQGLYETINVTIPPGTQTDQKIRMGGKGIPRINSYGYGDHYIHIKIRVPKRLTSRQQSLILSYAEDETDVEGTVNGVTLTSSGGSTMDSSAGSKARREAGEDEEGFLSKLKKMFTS
UniProt Q96FJ2, whole entry, looked up: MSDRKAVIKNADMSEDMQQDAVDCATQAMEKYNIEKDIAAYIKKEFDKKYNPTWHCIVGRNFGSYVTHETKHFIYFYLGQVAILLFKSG
UniProt Q9UKB3: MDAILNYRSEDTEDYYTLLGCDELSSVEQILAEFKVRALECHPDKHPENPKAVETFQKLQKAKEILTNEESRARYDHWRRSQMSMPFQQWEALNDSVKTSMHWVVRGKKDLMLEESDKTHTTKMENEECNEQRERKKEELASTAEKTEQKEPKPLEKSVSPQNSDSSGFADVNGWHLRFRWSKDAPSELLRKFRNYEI

Key:
Experiment in all cases: log2 fold change, soluble protein after heating vs DMSO (PISA); higher = thermal stabilisation; K562 cells, 10 uM, 30 min; active = over 0.2 and 3.5 SD of the protein, either way, in both replicates (recomputed)
bafetinib = compound: Cc1ccc(NC(=O)c2ccc(CN3CC[C@H](N(C)C)C3)c(C(F)(F)F)c2)cc1Nc1nccc(-c2cncnc2)n1 [bafetinib]
Summary of the method: (§1)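 K562 cells (2×10^6 cells/mL) were treated with 10 μM compound for 30 min, and aliquots were heated for 3 min over 48°C-58°C. Pooled aliquots were extracted in PBS with 0.5% NP-40 at 4°C, and the supernatant after 21,000xg for 90 min was measured by TMTpro 16plex LC-MS/MS with channel sums equalised. Reported thermal stability, relative to control samples and from duplicates, is a log2 fold change.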

[1] = compound: Cc1cccc(CC(=O)N2CCc3c2ccc(-c2cn(C)c4ncnc(N)c24)c3F)n1
Summary of the method: as §1

nilotinib = compound: Cc1cn(-c2cc(NC(=O)c3ccc(C)c(Nc4nccc(-c5cccnc5)n4)c3)cc(C(F)(F)F)c2)cn1 [nilotinib]
Summary of the method: as §1

[2] = compound: Cc1nc(Nc2n[nH]c3c2CN(C(=O)N[C@H](CN(C)C)c2ccccc2)C3(C)C)c2sccc2n1
Summary of the method: as §1

dasatinib = compound: Cc1nc(Nc2ncc(C(=O)Nc3c(C)cccc3Cl)s2)cc(N2CCN(CCO)CC2)n1 [dasatinib]
Summary of the method: as §1

[3] = compound: Cc1ncc(-c2ccnc(Nc3ccc(S(C)(=O)=O)cc3)n2)n1C(C)C
Summary of the method: as §1

[4] = compound: Cn1cc(-c2ccc3c(c2)CCN3C(=O)Cc2cccc(C(F)(F)F)c2)c2c(N)ncnc21
Summary of the method: as §1

[5] = compound: Cn1cc(-c2ccc3nnc(C(F)(F)c4ccc5ncccc5c4)n3n2)cn1
Summary of the method: as §1

tipifarnib = compound: Cn1cncc1[C@@](N)(c1ccc(Cl)cc1)c1ccc2c(c1)c(-c1cccc(Cl)c1)cc(=O)n2C [tipifarnib]
Summary of the method: as §1

mubritinib = compound: FC(F)(F)c1ccc(/C=C/c2nc(COc3ccc(CCCCn4ccnn4)cc3)co2)cc1 [mubritinib]
Summary of the method: as §1

[6] = compound: NC(=O)Nc1cc(-c2cccc(F)c2)sc1C(=O)N[C@H]1CCCNC1
Summary of the method: as §1

[7] = compound: NC(=O)c1cnc(N[C@@H]2CCCC[C@@H]2N)nc1Nc1cccc(-n2nccn2)c1
Summary of the method: as §1

[8] = compound: NC1(c2ccc(-c3nc4ccn5c(=O)[nH]nc5c4cc3-c3ccccc3)cc2)CCC1
Summary of the method: as §1

[9] = compound: NCC(=O)Nc1ccc(-n2nc(C(F)(F)F)cc2-c2ccc3c(ccc4ccccc43)c2)cc1
Summary of the method: as §1

entinostat = compound: Nc1ccccc1NC(=O)c1ccc(CNC(=O)OCc2cccnc2)cc1 [entinostat]
Summary of the method: as §1

vorinostat = compound: O=C(CCCCCCC(=O)Nc1ccccc1)NO [vorinostat]
Summary of the method: as §1

citarinostat = compound: O=C(CCCCCCNC(=O)c1cnc(N(c2ccccc2)c2ccccc2Cl)nc1)NO [citarinostat]
Summary of the method: as §1

silmitasertib = compound: O=C(O)c1ccc2c(c1)nc(Nc1cccc(Cl)c1)c1ccncc12 [silmitasertib]
Summary of the method: as §1

[10] = compound: O=C1NC(=O)C(c2cnc3ccccn23)=C1c1cn2c3c(cc(F)cc13)CN(C(=O)N1CCCCC1)CC2
Summary of the method: as §1

[11] = compound: c1cc(OCCN2CCCCC2)cc(-c2n[nH]c3ccc(-c4nnc[nH]4)cc23)c1
Summary of the method: as §1

Target	log2 fold change (bafetinib)	log2 fold change [1]	log2 fold change (nilotinib)	log2 fold change [2]	log2 fold change (dasatinib)	log2 fold change [3]	log2 fold change [4]	log2 fold change [5]	log2 fold change (tipifarnib)	log2 fold change (mubritinib)	log2 fold change [6]	log2 fold change [7]	log2 fold change [8]	log2 fold change [9]	log2 fold change (entinostat)	log2 fold change (vorinostat)	log2 fold change (citarinostat)	log2 fold change (silmitasertib)	log2 fold change [10]	log2 fold change [11]
DYNC1H1 (UniProt Q14204)	inactive: 0.023	inactive: 0.048	inactive: -0.007	inactive: 0.045	inactive: -0.065	inactive: -0.019	inactive: 0.025	inactive: 0.012	inactive: -0.037	inactive: 0.035	inactive: -0.017	inactive: -0.03	inactive: -0.121	inactive: -0.005	inactive: 0.003	inactive: 0.029	inactive: 0.021	inactive: -0.018	inactive: -0.034	inactive: -0.028
DNAJC10 (UniProt Q8IXB1)	inactive: 0.05	inactive: 0.019	inactive: -0.008	inactive: 0.052	inactive: 0.014	inactive: -0.029	inactive: -0.075	inactive: 0.029	inactive: 0.019	inactive: -0.09	inactive: 0.073	inactive: 0.012	inactive: 0	inactive: 0.101	inactive: 0.014	inactive: -0.028	inactive: 0.004	inactive: 0.003	inactive: 0.074	inactive: -0.07
DPY30 (UniProt Q9C005)	inactive: -0.16	inactive: -0.284	inactive: 0.132	inactive: -0.086	inactive: -0.052	inactive: -0.104	inactive: 0.093	inactive: 0.404	inactive: 0.412	inactive: -0.035	inactive: 0.283	inactive: 0.32	inactive: 0.109	inactive: 0.329	inactive: 0.213	inactive: -0.201	inactive: -0.166	inactive: -0.035	inactive: -0.04	inactive: -0.15
DPY19L4 (UniProt Q7Z388)	inactive: -0.169	inactive: -0.035	inactive: 0.205	inactive: 0.109	inactive: -0.369	inactive: -0.099	inactive: -0.193	inactive: 0.027	inactive: 0.093	inactive: 0.036	inactive: 0.061	inactive: -0.126	inactive: -0.16	inactive: -0.068	inactive: 0.228	inactive: 0.074	inactive: 0.008	inactive: 0.071	inactive: -0.087	inactive: -0.208
DR1 (UniProt Q01658)	inactive: 0.028	inactive: 0.039	inactive: -0.001	inactive: 0.03	inactive: 0.052	inactive: -0.017	inactive: 0.014	inactive: -0.006	inactive: -0.054	inactive: -0.021	inactive: 0.001	inactive: -0.017	inactive: 0.011	inactive: 0.004	inactive: 0.001	inactive: 0.001	inactive: 0.01	inactive: 0.015	inactive: -0.005	inactive: -0.056
DYNC1LI2 (UniProt O43237)	inactive: -0.041	inactive: -0.004	inactive: 0.109	inactive: 0.015	inactive: -0.068	inactive: 0.125	inactive: -0.184	inactive: 0.052	inactive: -0.01	inactive: 0.024	inactive: 0.093	inactive: -0.021	inactive: 0.206	inactive: -0.075	inactive: -0.026	inactive: 0.075	inactive: -0.101	inactive: 0.214	inactive: 0.158	inactive: -0.108
ECSIT (UniProt Q9BQ95)	inactive: -0.034	inactive: 0.066	inactive: 0.032	inactive: 0.062	inactive: 0.042	inactive: -0.053	inactive: 0.043	inactive: 0.017	inactive: 0.078	inactive: 0.029	inactive: -0.003	inactive: -0.019	inactive: -0.024	inactive: -0.055	inactive: -0.021	inactive: 0.005	inactive: 0.03	inactive: 0.014	inactive: -0.097	inactive: 0.027
DPH5 isoform 5 (UniProt Q9H2P9)	inactive: 0.025	inactive: 0.037	inactive: 0.013	inactive: -0.023	active: 0.253	inactive: 0.003	inactive: 0.085	inactive: 0.006	inactive: -0.121	inactive: 0.049	inactive: -0.036	inactive: -0.005	inactive: 0.209	inactive: -0.003	inactive: -0.018	inactive: -0.009	inactive: 0.017	inactive: -0.008	inactive: 0.109	inactive: 0.038
DPP7 (UniProt Q9UHL4)	inactive: -0.13	inactive: -0.02	inactive: 0.004	inactive: -0.02	inactive: 0.063	inactive: -0.024	inactive: -0.016	inactive: -0.018	inactive: 0.04	inactive: 0.013	inactive: 0.007	inactive: 0.025	inactive: -0.029	inactive: 0.009	inactive: -0.032	inactive: -0.026	inactive: 0.014	inactive: 0.024	inactive: 0.07	inactive: -0.049
DPH7 (UniProt Q9BTV6)	inactive: -0.065	inactive: -0.004	inactive: 0.018	inactive: 0.001	inactive: 0.037	inactive: 0.022	inactive: 0.014	inactive: -0.146	inactive: 0.076	inactive: -0.089	inactive: 0.033	inactive: -0.033	inactive: 0.118	inactive: 0.019	inactive: -0.032	inactive: -0.063	inactive: -0.051	inactive: -0.031	inactive: 0.04	inactive: 0.028
DTD1 (UniProt Q8TEA8)	inactive: -0.035	inactive: 0.202	inactive: -0.003	inactive: -0.012	inactive: 0.01	inactive: 0.002	inactive: 0.031	inactive: 0.034	inactive: -0.023	inactive: 0.047	inactive: 0.008	inactive: -0.033	inactive: -0.007	inactive: 0.045	inactive: -0.02	inactive: 0.104	inactive: 0.006	inactive: -0.044	inactive: -0.007	inactive: 0.024
DTL (UniProt Q9NZJ0)	inactive: 0.117	inactive: -0.072	inactive: 0.002	inactive: 0.036	inactive: -0.003	inactive: -0.238	inactive: -0.043	inactive: 0.012	inactive: -0.022	inactive: 0.137	inactive: -0.086	inactive: 0.189	inactive: -0.036	inactive: -0.036	inactive: 0.077	inactive: 0.032	inactive: -0.094	inactive: -0.049	inactive: -0.037	inactive: -0.118
DNPH1 (UniProt O43598)	inactive: -0.028	inactive: 0	inactive: 0.024	inactive: -0.012	inactive: -0.01	inactive: 0.056	inactive: 0.056	inactive: 0.008	inactive: 0.02	inactive: 0.008	inactive: -0.001	inactive: 0.05	inactive: 0.007	inactive: 0.089	inactive: -0.056	inactive: -0.001	inactive: 0.036	inactive: -0.03	inactive: -0.04	inactive: -0.008
DNAJA3 (UniProt Q96EY1)	inactive: -0.012	inactive: -0.041	inactive: -0.08	inactive: -0.001	inactive: -0.048	inactive: 0.057	inactive: -0.006	inactive: 0.006	inactive: -0.031	inactive: -0.02	inactive: 0.007	inactive: -0.037	inactive: 0.017	inactive: -0.034	inactive: -0.063	inactive: 0.044	inactive: -0.01	inactive: 0.14	inactive: 0.099	inactive: -0.072
DYNLL2 (UniProt Q96FJ2)	inactive: -0.047	inactive: -0.03	inactive: 0.008	inactive: -0.044	inactive: 0.023	inactive: 0.013	inactive: 0.214	inactive: 0.041	inactive: -0.228	inactive: 0.027	inactive: -0.03	inactive: -0.034	inactive: 0.01	inactive: -0.094	inactive: 0.047	inactive: -0.027	inactive: 0.025	inactive: -0.029	inactive: -0.057	inactive: -0.004
DNAJC12 (UniProt Q9UKB3)	inactive: -0.069	inactive: 0.006	inactive: -0.005	inactive: 0.015	inactive: 0.021	inactive: -0.024	inactive: -0.019	inactive: -0.012	inactive: 0.006	inactive: 0.039	inactive: -0.106	inactive: -0.048	inactive: -0.028	inactive: -0.026	inactive: -0.032	inactive: 0.008	inactive: 0.112	inactive: 0.014	inactive: -0.054	inactive: 0.178

Some values from the list:
log2 fold change (silmitasertib) with ECSIT (UniProt Q9BQ95) is entered as inactive: 0.014
log2 fold change [2] with DNAJA3 (UniProt Q96EY1) is entered as inactive: -0.001
